Results are given in words; binding and its absence hold for the method and conditions named. In cells and extracts the contact can be indirect. For some of these results: Binding can be weak; no strength is given. For some of these results: Where a sequence is shown, tags or fusion partners need not be part of it.

Amino acid sequences for entries named in this document (tags omitted). A change or cut given only in a name is not applied to a line headed by its entry.
UniProt P02828: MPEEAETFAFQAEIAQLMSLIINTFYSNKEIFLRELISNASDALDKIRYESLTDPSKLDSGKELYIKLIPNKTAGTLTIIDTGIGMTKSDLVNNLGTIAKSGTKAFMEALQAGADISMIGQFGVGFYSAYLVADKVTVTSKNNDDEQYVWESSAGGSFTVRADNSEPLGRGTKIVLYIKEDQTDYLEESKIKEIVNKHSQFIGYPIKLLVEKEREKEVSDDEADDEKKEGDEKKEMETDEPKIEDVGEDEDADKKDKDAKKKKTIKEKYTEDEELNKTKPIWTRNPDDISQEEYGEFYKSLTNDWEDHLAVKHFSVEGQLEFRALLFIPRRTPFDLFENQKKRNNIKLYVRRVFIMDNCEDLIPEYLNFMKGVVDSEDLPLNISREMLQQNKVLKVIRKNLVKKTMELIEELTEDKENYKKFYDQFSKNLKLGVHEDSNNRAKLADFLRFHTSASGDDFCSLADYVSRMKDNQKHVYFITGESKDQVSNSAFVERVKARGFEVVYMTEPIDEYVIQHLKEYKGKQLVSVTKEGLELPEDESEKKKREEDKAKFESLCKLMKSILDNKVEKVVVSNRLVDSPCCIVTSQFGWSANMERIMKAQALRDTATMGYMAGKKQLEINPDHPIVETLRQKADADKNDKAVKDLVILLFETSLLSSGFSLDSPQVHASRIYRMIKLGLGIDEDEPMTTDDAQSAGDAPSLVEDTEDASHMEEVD
UniProt Q7JWU1: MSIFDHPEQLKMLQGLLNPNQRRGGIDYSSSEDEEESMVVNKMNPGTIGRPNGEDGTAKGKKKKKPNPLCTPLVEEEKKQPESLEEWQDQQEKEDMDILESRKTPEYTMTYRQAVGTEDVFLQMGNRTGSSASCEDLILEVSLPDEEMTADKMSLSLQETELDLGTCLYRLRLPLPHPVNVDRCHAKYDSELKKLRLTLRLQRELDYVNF
UniProt Q7JY49: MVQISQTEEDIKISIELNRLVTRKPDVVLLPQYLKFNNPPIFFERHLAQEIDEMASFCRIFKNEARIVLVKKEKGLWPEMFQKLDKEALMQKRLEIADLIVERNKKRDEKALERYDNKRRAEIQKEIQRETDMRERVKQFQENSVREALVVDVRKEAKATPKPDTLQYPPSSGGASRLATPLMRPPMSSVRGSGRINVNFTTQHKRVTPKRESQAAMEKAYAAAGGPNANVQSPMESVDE
UniProt Q9VH07: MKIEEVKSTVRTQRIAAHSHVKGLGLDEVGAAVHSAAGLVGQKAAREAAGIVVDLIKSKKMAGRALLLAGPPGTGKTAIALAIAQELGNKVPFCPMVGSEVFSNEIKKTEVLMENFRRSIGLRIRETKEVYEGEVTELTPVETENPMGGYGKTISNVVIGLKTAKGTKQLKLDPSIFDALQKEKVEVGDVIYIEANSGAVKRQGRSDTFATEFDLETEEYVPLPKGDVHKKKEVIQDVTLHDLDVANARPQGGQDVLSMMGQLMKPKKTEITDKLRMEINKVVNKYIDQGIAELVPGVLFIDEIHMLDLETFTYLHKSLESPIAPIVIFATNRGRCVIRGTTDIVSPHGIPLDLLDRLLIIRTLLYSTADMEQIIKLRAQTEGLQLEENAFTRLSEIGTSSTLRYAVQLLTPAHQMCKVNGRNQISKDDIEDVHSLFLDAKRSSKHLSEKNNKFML
UniProt Q9V3K3: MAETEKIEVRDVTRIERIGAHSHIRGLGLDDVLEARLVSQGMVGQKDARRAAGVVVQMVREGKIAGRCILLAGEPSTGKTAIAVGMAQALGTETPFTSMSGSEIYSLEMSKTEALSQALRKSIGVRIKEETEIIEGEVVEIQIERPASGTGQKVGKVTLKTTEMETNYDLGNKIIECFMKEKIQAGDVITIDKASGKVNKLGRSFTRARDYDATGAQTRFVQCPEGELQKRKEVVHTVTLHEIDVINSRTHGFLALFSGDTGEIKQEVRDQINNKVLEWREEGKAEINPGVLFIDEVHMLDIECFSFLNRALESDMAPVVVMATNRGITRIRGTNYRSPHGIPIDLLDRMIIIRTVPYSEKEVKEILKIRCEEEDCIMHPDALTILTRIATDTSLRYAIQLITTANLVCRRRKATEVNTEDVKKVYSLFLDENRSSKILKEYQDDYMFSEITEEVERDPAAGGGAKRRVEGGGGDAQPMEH

Common to all, as to assay: co-IP; FLAG-tagged bait and HA-tagged prey expressed in S2 cells, harvested after 48-72 h; FLAG Immunoprecipitation kit; Western blot with anti-FLAG and anti-HA together
For orientation: Immunoblotting shows a protein as a band on a membrane.

Experiment [1] addresses T1, mouse Dnaaf6, FLAG-tagged (mouse) (UniProt Q3KNI6).
T1 sequence: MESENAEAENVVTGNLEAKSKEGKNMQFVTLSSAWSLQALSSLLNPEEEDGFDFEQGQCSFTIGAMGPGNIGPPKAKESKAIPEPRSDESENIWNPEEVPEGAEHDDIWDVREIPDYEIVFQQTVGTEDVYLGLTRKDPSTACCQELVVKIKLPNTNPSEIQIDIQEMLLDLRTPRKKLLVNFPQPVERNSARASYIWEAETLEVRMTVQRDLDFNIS

In experiment [2] the target is Drosophila Hsp90, FLAG-tagged (Drosophila melanogaster) (UniProt P02828).
Experiment [3] addresses Drosophila Dnaaf6, FLAG-tagged (Drosophila melanogaster) (UniProt Q7JWU1).
Experiment [4] concerns the target Drosophila Dnaaf4, FLAG-tagged (Drosophila melanogaster) (UniProt Q7JY49).

“Drosophila Dnaaf4, HA-tagged (from UniProt Q7JY49)”: the binding result in experiment [1] was “binds”; in experiment [2], “no binding”; in experiment [3], “binds”.

On to “Drosophila Pontin, HA-tagged (from UniProt Q9VH07 1-456)”, for which the binding entry in experiment [4] and in experiment [3] was “binds” each time.

“Drosophila Reptin, HA-tagged (from UniProt Q9V3K3 1-481)”: the binding result in experiment [4] and in experiment [3] was “binds” each time.

(Values after paper PMC9298768.)
